Experimental data: PubChem BioAssay AID1259424 (University of Nebraska Medical Center, 2018)

- Test: 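Rank knockdowns across the genome by resemblance to the KSR1 depletion profile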 (primary screen)
- System: human HCT116 colon cancer cells
- Knock-down reagent: siRNA pool against human genes, 50 nM
- Measurement: 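Six signature mRNAs by branched-DNA multiplex assay, scaled to two housekeeping genes and non-targeting median, log2; matched to mean KSR1 knockdown profile by Pearson correlation and euclidean distance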
- Direction: mean correlation with KSR1 profile: higher = expression change more like KSR1 knockdown
Shown is a random part of about 14,000 reagents. 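Higher correlation or smaller distance means closer resemblance to KSR1 loss; control wells, including KSR1 knockdowns, recur on many plates.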 The numbers tell different reagents against one gene apart. Not all columns of the deposit are shown. Not stated in the record: the time to read-out.

gene knocked down	pool no.	mean correlation with KSR1 profile
KAT7 (GeneID 11143)	1	-0.0431
KTN1 (GeneID 3895)	1	0.241
ZNF444 (GeneID 55311)	1	-0.282
GNLY (GeneID 10578)	1	-0.07
DEDD (GeneID 9191)	1	0.916
ABHD10 (GeneID 55347)	1	-0.206
BORCS8-MEF2B (GeneID 4207)	1	0.576
RBM14 (GeneID 10432)	1	-0.759
RBM14 (GeneID 10432)	2	0.578
ADAR (GeneID 103)	1	-0.65
URB2 (GeneID 9816)	1	-0.514
KLRG1 (GeneID 10219)	1	0.221
RHOBTB2 (GeneID 23221)	1	0.833
CNP (GeneID 1267)	1	-0.282
CENPC (GeneID 1060)	1	-0.404
ZBTB40 (GeneID 9923)	1	-0.544
ATP6V1B2 (GeneID 526)	1	-0.435
GLRA2 (GeneID 2742)	1	-0.166
GET3 (GeneID 439)	1	0.292
DAPK2 (GeneID 23604)	1	0.28
ATP6V1E1 (GeneID 529)	1	-0.451
NAIP (GeneID 4671)	1	-0.846
DST (GeneID 667)	1	-0.215
TAS2R5 (GeneID 54429)	1	0.45
GNGT1 (GeneID 2792)	1	-0.0321
MBNL3 (GeneID 55796)	1	0.0945
HEBP2 (GeneID 23593)	1	-0.116
YJU2 (GeneID 55702)	1	-0.037
COQ8A (GeneID 56997)	1	0.405
ALKBH6 (GeneID 84964)	1	0.538
DTNB (GeneID 1838)	1	-0.231
AGPS (GeneID 8540)	1	-0.562
ITCH (GeneID 83737)	1	-0.219
FAM230C (GeneID 26080)	1	-0.162
STON1 (GeneID 11037)	1	-0.382
CDKN2D (GeneID 1032)	1	0.299
TP63 (GeneID 8626)	1	0.216
SLC25A19 (GeneID 60386)	1	0.297
KIAA1586 (GeneID 57691)	1	-0.255
WAS (GeneID 7454)	1	0.0662
NOP56 (GeneID 10528)	1	-0.773
IL18RAP (GeneID 8807)	1	-0.366
RMC1 (GeneID 29919)	1	-0.318
COL20A1 (GeneID 57642)	1	-0.175
ADA (GeneID 100)	1	-0.428
TBR1 (GeneID 10716)	1	0.09
H2BC12L (GeneID 54145)	1	-0.0884
ARHGAP45 (GeneID 23526)	1	-0.0118
CBFA2T2 (GeneID 9139)	1	0.531
PAK4 (GeneID 10298)	1	-0.0698

Already shown: entries from further up.
gene knocked down	pool no.	mean correlation with KSR1 profile
TP63 (GeneID 8626)	1	0.216
SLC25A19 (GeneID 60386)	1	0.297
